“And” between values parts separate entries of the source, which are not always exact repeats. Equal entries are not always repeated.
Assays:
[1] = CO2 release and PyBIG regeneration by solar oven heating; format: physicochemical
Experimental: The CO2 release from the PyBIGH2(CO3)(H2O)4 crystals was conducted by solar heating with a solar oven. The oven consists of a vacuum-insulated borosilicate tube placed in the focal point of two adjustable parabolic reflectors. The temperature inside the tube was monitored with a thermocouple. The PyBIGH2(CO3)(H2O)4 samples 36.4-45.0 mg, 0.095-0.118 mmol) were loaded in 1 mL glass vials, which were placed inside the oven tube. The solar oven was then placed in the full sun and oriented to capture the maximum amount of sunlight. The temperature was ramped to the targeted values of 120° C., 130° C., 140° C., 150° C., or 160° C. as fast as possible (typically within 3 to 10 minutes), then held within ±2° C. by intermittently moving the oven out of the sun, or/and closing the reflectors. The samples were subsequently removed from the tube, allowed to cool to room temperature, and weighed to determine their mass loss. The resulting yellow solids were analyzed by FTIR to confirm the disappearance of the carbonate and water peaks. The solar regeneration experiments were repeated three times at each temperature, and the average values and standard deviations calculated.
However, considering that this transformation is highly endothermic, the possibility of using concentrated solar power to render the process more energy sustainable was explored. For the initial small-scale proof of concept, a solar oven was used to heat solid PyBIGH2(CO3)(H2O)4 samples (˜38 mg, 0.1 mmol) at five different temperatures ranging between 120 and 160° C. FTIR analyses corroborated the release of CO2, most evidently noticeable by the disappearance of the strong peak at 1361 cm^−1 corresponding to the stretching mode of the carbonate anion.

[2] = Sorbent regeneration by boiling aqueous solutions under reflux; conditions: for total CO2 swing capacity: 4 hours of refluxing; for total CO2 removed: one hour of refluxing
[3] = Direct air capture of CO2 with aqueous amino acid sorbents in an air humidifier; conditions: for average CO2 loading: after 24 hours; for Carbamate / Total CO2: after 24 hours absorption, average of three runs
[4] = Sorbent regeneration by carbonate crystallization with PyBIG; conditions: 24 hours absorption, 24 hours regeneration with PyBIG, three runs

`O=C([O-])[O-].[K+].[K+]` [K2CO3, reference compound] showed a Regeneration yield ([1]; 120 ° C., 30 min) of 15%.
With `N=C(N)N/N=C/c1cccc(/C=N/NC(=N)N)n1` [PyBIG] the Regeneration yield ([1]; 120 ° C., 30 min) was 92% and 92 ± 2%, the Regeneration yield ([1]; 130 ° C., 15 min) was 92 ± 2% and the Regeneration yield ([1]; 140 ° C., 10 min) was 95 ± 2%. The Regeneration yield ([1]; 150 ° C., 5 min) was 93 ± 2%, the Regeneration yield ([1]; 160 ° C., 2 min) was 96 ± 1% and the Regeneration yield ([1]; concentrated solar power, 120-160° C.) was 92-96%.
For `NCC(=O)O` [glycine], the “total CO2 swing capacity” value [2] was 0.47 mol/mol, the “total CO2 removed” value [2] was 0.31 mol/mol and the “average CO2 loading” value [3] was 0.77±0.04 mol/mol. The Carbamate [3] was 0.22 ± 0.06 M, the “Total CO2” value [3] was 0.77 ± 0.04 M and the Carbamate ([3]; listed as Glycine) was 0.22 ± 0.06 M. It also gave an average swing capacity [4] of 0.28±0.06 mol/mol.
In the case of `CNCC(=O)O` [sarcosine], the “total CO2 swing capacity” value [2] is reported as 0.45 mol/mol, the “total CO2 removed” value [2] is reported as 0.30 mol/mol and the “average CO2 loading” value [3] is reported as 0.69±0.05 mol/mol. The Carbamate [3] was 0.15 ± 0.02 M, the “Total CO2” value [3] was 0.69 ± 0.05 M and the Carbamate ([3]; listed as Sarcosine) was 0.15 ± 0.02 M. It also gave an average swing capacity [4] of 0.31±0.05 mol/mol.
